Measured values taken from the supplement of paper PMC12823440, “Inhibitors supercharge kinase turnover through native proteolytic circuits” (Nature, 2025).
Counter-ions that a name gives are not always drawn. The list shows a part of the results. Hit calls seldom repeat between salt and free forms of one compound.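 In K562 cells expressing nanoluciferase-fused kinases, luminescence was recorded at 4 h intervals between 2 and 18 h, normalized as percent of control with DMSO at 100% and a positive control at 0%. A significant (2 sigma) signal drop marks a time point as decreased. The authors' rule for a hit is not shown and takes in more than the number of time points.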

The compounds below were run against RAF1 (UniProt P04049) (assay: kinase-Nluc reporter destabilization hit call (1 = scored as downregulated) (binary); higher = compound decreases kinase abundance). Conditions: K562; 2-18 h.

| Compound | kinase-Nluc reporter destabilization hit call |
| --- | --- |
| C=CC(=O)N1CCC[C@@H](n2c(=O)n(-c3ccc(Oc4ccccc4)cc3)c3c(N)nccc32)C1 [Tolebrutinib] (10 µM) | inactive: 0 |
| C[C@]1(O)C[C@@](N)(c2ccc(-c3nc4n(c3-c3ccccc3)COc3ccncc3-4)cc2)C1 [TAS-117 (hydrochloride)] (10 µM) | inactive: 0 |
| CCOC(=O)C1=C[C@]2(CC)CCCN3CCc4c(n1c1ccccc41)[C@@H]32 [Vinpocetine] (10 µM) | inactive: 0 |
| CC(C)(C)NS(=O)(=O)c1cncc(-c2cc(F)c3nc(N)nn3c2)c1 (10 µM) | inactive: 0 |
| CC(C)(C)c1ccc(C(=O)Nc2cn3cc(-n4ccnc4)ccc3n2)cc1 (10 µM) | inactive: 0 |
| Cc1nc(NC(=O)N2CCC[C@H]2C(N)=O)sc1-c1csc(C(C)(C)C)n1 (10 µM) | inactive: 0 |
| N#Cc1cn([C@@H]2O[C@H](CO)[C@@H](O)[C@H]2O)c2nc[nH]c(=O)c12 [Jaspamycin] (10 µM) | inactive: 0 |
| Cc1ccc(-c2csc(Cn3nc(CC4OCCCO4)c4ccccc4c3=O)n2)cc1 (10 µM) | inactive: 0 |
| CNC(=O)c1c(C)oc2cc(Oc3ncnc4cc(OC)c(OC)cc34)ccc12 [Fruquintinib] (10 µM) | inactive: 0 |
| O=S(=O)(N=Cc1c(O)ccc2ccccc12)c1cccs1 (10 µM) | inactive: 0 |
| NC(=O)c1cccc2c(N[C@H](CN3CCC3)c3ccc(Cl)c(C(F)(F)F)c3)ncnc12 (10 µM) | inactive: 0 |
| CN1CCC(c2ccccc2CC(C)(C)Nc2nc(N3CCOCC3)nc(-n3c(S(C)(=O)=O)nc4ccccc43)n2)CC1 (10 µM) | inactive: 0 |
| O=c1ccc2cc(O)c(O)cc2o1 [Esculetin] (10 µM) | inactive: 0 |
| O=C(Nc1nc2cccc(-c3ccc(CN4CCS(=O)(=O)CC4)cc3)n2n1)C1CC1 [Filgotinib] (2.5 µM) | inactive: 0 |
| CC(C)(O)c1cc2nc(-c3cnc(N)nc3)nc(N3CCOCC3)c2s1 (2.5 µM) | inactive: 0 |
| Cn1cc(-c2ccc3ncc(Cc4ccc5ncccc5c4)n3n2)cn1 (10 µM) | inactive: 0 |
| CC(=O)c1cc(O)ccc1O [2,5-Dihydroxyacetophenone] (10 µM) | inactive: 0 |
| COc1ccc(COc2cc3oc(=O)c4cc(C(C)O)ccc4c3cc2OC)cc1 (stereo not drawn) [Palomid 529] (2.5 µM) | inactive: 0 |
| O=C(CC(c1ccccc1)C(C(=O)O)C(=O)O)c1ccc(C(F)(F)F)cc1 (stereo not drawn) (10 µM) | inactive: 0 |

As entered above.
Cc1nc(NC(=O)N2CCC[C@H]2C(N)=O)sc1-c1csc(C(C)(C)C)n1 (10 µM) – kinase-Nluc reporter destabilization hit call: inactive: 0
O=C(CC(c1ccccc1)C(C(=O)O)C(=O)O)c1ccc(C(F)(F)F)cc1 (stereo not drawn) (10 µM) – kinase-Nluc reporter destabilization hit call: inactive: 0

Additional records follow:

| Compound | kinase-Nluc reporter destabilization hit call |
| --- | --- |
| CC(C)[C@H](CO)Nc1nc(Nc2ccc(C(=O)O)c(Cl)c2)c2ncn(C(C)C)c2n1 [Purvalanol B] (10 µM) | inactive: 0 |
| COc1cc2nccc(Oc3ccc(NC(=O)Nc4ccc(F)cc4F)c(F)c3)c2cc1OC (10 µM) | inactive: 0 |
| N#C/C(=C\c1ccc[nH]1)c1ccc(Cl)c(Cl)c1 (2.5 µM) | inactive: 0 |
| O=c1cc(-c2ccc(O)cc2)oc2cc(O)c(O)c(O)c12 [Scutellarein] (10 µM) | inactive: 0 |
| CC(C)n1nc(C#Cc2ccccc2)c2c(N)ncnc21 (10 µM) | inactive: 0 |
| O=C(N=c1sccn1Cc1ccccc1)c1c[nH]c2ncccc12 (10 µM) | inactive: 0 |
| CC(C)=C/C=C1\O[C@@H]2CC(C)=CC(=O)[C@@H]2[C@]1(C)O [Bisabolangelone] (10 µM) | inactive: 0 |
| COc1ccc(C2CC(c3ccc(Cl)cc3)=NN2c2nc(-c3ccncc3)cs2)cc1 (stereo not drawn) [mTOR inhibitor-8] (10 µM) | inactive: 0 |
| Cc1cc(F)c(Nc2ncnc3cc(OCc4ccccc4)ccc23)cc1O (10 µM) | inactive: 0 |
| CNCCOc1ccccc1C(C)(C)Nc1nccn(-c2cc(C(=O)NC3CC3)ccc2C)c1=O [p38α inhibitor 2] (10 µM) | inactive: 0 |
| CCn1c(-c2nonc2N)nc2c(C#CCO)ncc(OCCCN)c21 [AKT Kinase Inhibitor] (10 µM) | inactive: 0 |
| NC(=O)c1nc(-c2c(F)cccc2Cl)oc1Nc1ccc(C(=O)N2CCOCC2)cc1 (10 µM) | inactive: 0 |
| O=C(NCc1cccc(O)c1)c1cc2cc(F)ccc2[nH]1 (10 µM) | inactive: 0 |
| Cc1nc(Nc2ncc(C(=O)Nc3c(C)cccc3Cl)s2)cc(N2CCN(C(=O)CCCCCCC(=O)N[C@H](C(=O)N3C[C@H](O)C[C@H]3C(=O)NCc3ccc(-c4scnc4C)cc3)C(C)(C)C)CC2)n1 (2.5 µM) | inactive: 0 |
| Cc1cccc(-c2[nH]c(C(C)(C)C)nc2-c2ccc3c(c2)OCO3)n1 (2.5 µM) | inactive: 0 |
| Cc1cccc(Cn2nc(C)c3c(NC(=O)c4csc5c(N)ncnc45)cccc32)n1 (10 µM) | inactive: 0 |
| CC[C@@H]1CN(C(=O)NCC(F)(F)F)C[C@@H]1c1cnc2cnc3[nH]ccc3n12 [Upadacitinib] (10 µM) | inactive: 0 |
| CNS(=O)(=O)C[C@H]1CC[C@H](N(C)c2[nH]cnc3nccc2-3)CC1 [Oclacitinib (maleate)] (10 µM) | inactive: 0 |
| COc1cc(-c2cnc(N)c(-c3ccc(NC(=O)c4cn(CC5CCOCC5)cc(-c5ccc(C)cn5)c4=O)cc3F)c2)ccc1OC[C@H]1COCCO1 [DS-1205b (free base)] (10 µM) | inactive: 0 |
